No constants are given. Whether binding was seen depends on the method and setting. In cells and extracts the contact can be indirect. These calls come from enrichment with a bait or labelling near it, and not all partners need be listed. Tags and fused reporters may be left off the sequences shown. Blank lines part the entries; values can stand above or below the molecule they belong to.
Experiments:
[1] = target: T1, Flag-RAB3A (residues 18-190, Q81L), unphosphorylated (UniProt P20336); test: affinity purification with mass spectrometry; phospho-FLAG-RAB3A or FLAG-RAB3A bound to anti-DYKDDDDK magnetic agarose as bait; incubated 1 h at 4 °C with whole brain lysate of mice given MLi-2 (30 mg/kg, 2 h); washed twice with high-salt lysis buffer (500 mM NaCl) and then regular lysis buffer (0.5% NP40, 5 mM MgCl2); DIA MS on Orbitrap Astral, 6 replicates per condition; only the target purified
T1 sequence: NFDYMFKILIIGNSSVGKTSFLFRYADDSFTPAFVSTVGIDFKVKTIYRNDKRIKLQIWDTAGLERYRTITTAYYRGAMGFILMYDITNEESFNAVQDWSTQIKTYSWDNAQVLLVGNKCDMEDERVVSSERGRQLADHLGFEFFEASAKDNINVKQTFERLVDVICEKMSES

[2] = target: T2, phospho-FLAG-RAB3A (residues 18-190, Q81L, pT86) (UniProt P20336); test: as above
T2 sequence (chain, phosphothreonine at 86 (Thr86, by MST3 kinase, site confirmed by MS)): T1 sequence

- binding [1]: binds
Molecule: UNC13 (MUNC13) (mouse (endogenous in brain))

- binding [2]: binds
B1: RILPL1 (protein, UniProt Q9JJC6 1-406)
chain: MEEPLGSPPAALSALEKNVAELTVMDVYDIASLVGHEFERVIDQHGCESIARLMPKVVRVLEILEVLVSRHHVAPELDELRLELDRLRVERMDRIEKERKHQKELELVEDVWRGEAQDLLSQIAQLQEENKQLMTNLNHKDVGFSEEEFQKQEGMSERERQVMKRLKEVVDKQRDELRAKDRELGLKNEDVEALQQQQTRLMKINHDLRHRVTVVEAQGKALIEQKVELEADLQTKEQEMGSLRAELGKLRERLQGEHSQNGEEEEAEIQPQPDGEESISDAEKAALDLKDPNRPRFTLQELRDVLHERNELKSKVFLLQEELAYYKSEEIEEENRIPQPPPITHPRTSPQPESGIKRLFSFFSRDKKRLANTQRPTHIHESFGQWAITQRDDGYTEQGQEALQHL

- binding [1]: binds
B2: ERC1 (protein, UniProt Q99MI1 1-1120)
chain: MYGSARSVGKVEPSSQSPGRSPRLPRSPRLGHRRTNSTGGSSGNSVGGGSGKTLSMENIQSLNAAYATSGPMYLSDHENVGAETPKSTMTLGRSGGRLPYGVRMTAMGSSPNIASSGVASDTIAFGEHHLPPVSMASTVPHSLRQARDNTIMDLQTQLKEVLRENDLLRKDVEVKESKLSSSMNSIKTFWSPELKKERALRKDEASKITIWKEQYRVVQEENQHMQMTIQALQDELRIQRDLNQLFQQDSSSRTGEPCVAELTEENFQRLHAEHERQAKELFLLRKTLEEMELRIETQKQTLNARDESIKKLLEMLQSKGLSAKATEEDHERTRRLAEAEMHVHHLESLLEQKEKENNMLREEMHRRFENAPDSAKTKALQTVIEMKDSKISSMERGLRDLEEEIQMLKSNGALSSEEREEEMKQMEVYRSHSKFMKNKVEQLKEELSSKDAQGEELKKRAAGLQSEIGQVKQELSRKDTELLALQTKLETLTNQFSDSKQHIEVLKESLTAKEQRAAILQTEVDALRLRLEEKETMLNKKTKQIQDMAEEKGTQAGEIHDLKDMLDVKERKVNVLQKKIENLQEQLRDKEKQMSSLKERVKSLQADTTNTDTALTTLEEALADKERTIERLKEQRDRDEREKQEEIDTYKKDLKDLREKVSLLQGDLSEKEASLLDIKEHASSLASSGLKKDSRLKTLEIALEQKKEECLKMESQLKKAHEATLEARASPEMSDRIQQLEREISRYKDESSKAQTEVDRLLEILKEVENEKNDKDKKIAELESLTSRQVKDQNKKVANLKHKEQVEKKKSAQMLEEARRREDSLSDSSQQLQDSLRKKDDRIEELEEALRESVQITAEREMVLAQEESARTNAEKQVEELLMAMEKVKQELESMKAKLSSTQQSLAEKETHLTNLRAERRKHLEEVLEMKQEALLAAISEKDANIALLELSSSKKKTQEEVAALKREKDRLVQQLKQQTQNRMKLMADNYEDDHFRSSRSNQTNHKPSPDQIIQPLLELDQNRSKLKLYIGHLTALCHDRDPLILRGLTPPASYNADGEQAAWENELQQMTQEQLQNELEKVEGDNAELQEFANTILQQIADHCPDILEQVVNALEESS

- binding [1]: binds
B3: ERC2 (protein, UniProt Q6PH08 1-957)
chain: MYGSARTISNLEGSPSRSPRLPRSPRLGHRRTSSGGGGGTGKTLSMENIQSLNAAYATSGPMYLSDHEGVASTTYPKGTMTLGRATNRAVYGGRVTAMGSSPNIASAGLSHTDVLSYTDQHGGLSGSSHHHHHQVPSMLRQVRDSTMLDLQAQLKELQRENDLLRKELDIKDSKLGSSMNSIKTFWSPELKKERVLRKEEAARMSVLKEQMRVSHEENQHLQLTIQALQDELRTQRDLNHLLQQESGNRGAEHFTIELTEENFRRLQAEHDRQAKELFLLRKTLEEMELRIETQKQTLNARDESIKKLLEMLQSKGLPSKSLEDDNERTRRMAEAESQVSHLEVILDQKEKENIHLREELHRRSQLQPEPAKTKALQTVIEMKDTKIASLERNIRDLEDEVQMLKANGVLNTEDREEEIKQIEVYKSHSKFMKTKIDQLKQELSKKESELLALQTKLETLSNQNSDCKQHIEVLKESLTAKEQRAAILQTEVDALRLRLEEKESFLNKKTKQLQDLTEEKGTLAGEIRDMKDMLEVKERKINVLQKKIENLQEQLRDKDKQLTNLKDRVKSLQTDSSNTDTALATLEEALSEKERIIERLKEQRERDDRERLEEIESFRKENKDLKEKVNALQAELTEKESSLIDLKEHASSLASAGLKRDSKLKSLEIAIEQKKEECNKLEAQLKKAHNIEDDSRMNPEFADRLKQLDKEASYYRDECGKAQAEVDRLLEILKEVENEKNDKDKKIAELESLTLRHMKDQNKKVANLKYNQQLEKKKNAQLLEEVRRREDSMVDNSQHLQIEELMNALEKTRQELDATKARLASTQQSLAEKEAHLANLRIERRKQLEEILEMKQEALLAAISEKDANIALLELSASKKKKTQEEVMALKREKDRLVHQLKQQTQNRMKLMADNYDEDHHHYHHHHHHHHHRSPGRSQHSNHRPSPDQDDEEGIWA

- binding [2]: binds
B4: RILPL2 (protein, UniProt Q99LE1 1-197)
chain: MEDHPVREEEDGEEDEGALAKSPLQLTTDDVYDISYVVGRELMALGSDPRVTRLQFKIVRVMEMLETLVNEGSLAVEELRMERDNLKQEVEGLRKAGVSGAQVNLGPDKMVVDLTDPNRPRFTLQELREVLQERNKLKSQLLLVQEELQCYRSGLLPPRETPGGRREKDAVVAMGNGEKEERTIMKKLFSFRSGKHT

Reference: PMC13522591
